Laboratory results published in patent US20230293482A1, “CENTRAL NERVOUS SYSTEM POTENTIATING COMPOSITION” (priority 2020, published 2023).

Experiment: In vitro hydrogen peroxide production, FOX assay
Format: physicochemical
Conditions: for produced amount of hydrogen peroxide at pH 7 compared with pH 3: FOX assay; for hydrogen peroxide production: pH 3.0 and pH 7.0, FOX assay

Structure (SMILES)	produced amount of hydrogen peroxide at pH 7 compared with pH 3	hydrogen peroxide production
Oc1cc(O)c2c(c1)O[C@H](c1ccc(O)c(O)c1)[C@H](O)[C@H]2c1c(O)cc(O)c2c1O[C@H](c1ccc(O)c(O)c1)[C@H](O)C2 [dimer]	significantly increased	produced hydrogen peroxide
Oc1cc(O)c2c(c1)O[C@H](c1ccc(O)c(O)c1)[C@H](O)[C@H]2c1c(O)cc(O)c2c1O[C@H](c1ccc(O)c(O)c1)[C@H](O)[C@H]2c1c(O)cc(O)c2c1O[C@H](c1ccc(O)c(O)c1)[C@H](O)C2 [trimer]	significantly increased	produced hydrogen peroxide
